These are yes or no findings as the source states them, for the method shown. Binding seen in cells or lysates may run through a third protein. Some results given as binding are weak or reduced against the parent protein; the word gives no strength. For some assays here: Where a sequence is shown, tags or fusion partners need not be part of it.
Tests used:
[1] = biological target: phosphorylated mediator complex subunit 1 (MED1, phospho T1457), endogenous in clinical prostate specimens (human (endogenous in clinical prostate tumor specimens)), Q15648; experiment: proximity ligation; Duolink In Situ Detection Reagents Brightfield Kit on the Ventana DISCOVERY Ultra autostainer; clinical prostate tumor specimens (57 cases), CRPC specimens; anti-TRAP220/MED1 (phospho T1457) and anti-AR (441); 1 h ligation, 2 h amplification; details: remark: other sources report otherwise
[2] = biological target: phosphorylated mediator complex subunit 1 (pMED1, at T1457), endogenous in LNCaP cells (human (endogenous in LNCaP)), Q15648; experiment: proximity ligation; Duolink PLA kit; LNCaP cells transfected with AR-mEGFP, 5% CSS for 2 days, then 1 nM DHT for 2 h; with or without 4% 1,6-hexanediol for 5 min before fixing (signal significantly reduced by 1,6-HD); confocal microscopy; details: remark: other sources report otherwise

| Binder | binding [1] | binding [2] |
| --- | --- | --- |
| androgen receptor (AR), endogenous in clinical prostate specimens, P10275 1-920 (protein, here or on the partner: phosphothreonine at T1457) MEVQLGLGRVYPRPPSKTYRGAFQNLFQSVREVIQNPGPRHPEAASAAPPGASLLLLQQQQQQQQQQQQQQQQQQQQQQQETSPRQQQQQQGEDGSPQAHRRGPTGYLVLDEEQQPSQPQSALECHPERGCVPEPGAAVAASKGLPQQLPAPPDEDDSAAPSTLSLLGPTFPGLSSCSADLKDILSEASTMQLLQQQQQEAVSEGSSSGRAREASGAPTSSKDNYLGGTSTISDNAKELCKAVSVSMGLGVEALEHLSPGEQLRGDCMYAPLLGVPPAVRPTPCAPLAECKGSLLDDSAGKSTEDTAEYSPFKGGYTKGLEGESLGCSGSAAAGSSGTLELPSTLSLYKSGALDEAAAYQSRDYYNFPLALAGPPPPPPPPHPHARIKLENPLDYGSAWAAAAAQCRYGDLASLHGAGAAGPGSGSPSAAASSSWHTLFTAEEGQLYGPCGGGGGGGGGGGGGGGGGGGGGGGEAGAVAPYGYTRPPQGLAGQESDFTAPDVWYPGGMVSRVPYPSPTCVKSEMGPWMDSYSGPYGDMRLETARDHVLPIDYYFPPQKTCLICGDEASGCHYGALTCGSCKVFFKRAAEGKQKYLCASRNDCTIDKFRRKNCPSCRLRKCYEAGMTLGARKLKKLGNLKLQEEGEASSTTSPTEETTQKLTVSHIEGYECQPIFLNVLEAIEPGVVCAGHDNNQPDSFAALLSSLNELGERQLVHVVKWAKALPGFRNLHVDDQMAVIQYSWMGLMVFAMGWRSFTNVNSRMLYFAPDLVFNEYRMHKSRMYSQCVRMRHLSQEFGWLQITPQEFLCMKALLLFSIIPVDGLKNQKFFDELRMNYIKELDRIIACKRKNPTSCSRRFYQLTKLLDSVQPIARELHQFTFDLLIKSHMVSVDFPEMMAEIISVQVPKILSGKVKPIYFHTQ | binds |  |
| full-length androgen receptor tagged with non-dimerizing mEGFP (AR-mEGFP), in LNCaP cells, P10275 1-920 (protein, here or on the partner: phosphothreonine at T1457) MEVQLGLGRVYPRPPSKTYRGAFQNLFQSVREVIQNPGPRHPEAASAAPPGASLLLLQQQQQQQQQQQQQQQQQQQQQQQETSPRQQQQQQGEDGSPQAHRRGPTGYLVLDEEQQPSQPQSALECHPERGCVPEPGAAVAASKGLPQQLPAPPDEDDSAAPSTLSLLGPTFPGLSSCSADLKDILSEASTMQLLQQQQQEAVSEGSSSGRAREASGAPTSSKDNYLGGTSTISDNAKELCKAVSVSMGLGVEALEHLSPGEQLRGDCMYAPLLGVPPAVRPTPCAPLAECKGSLLDDSAGKSTEDTAEYSPFKGGYTKGLEGESLGCSGSAAAGSSGTLELPSTLSLYKSGALDEAAAYQSRDYYNFPLALAGPPPPPPPPHPHARIKLENPLDYGSAWAAAAAQCRYGDLASLHGAGAAGPGSGSPSAAASSSWHTLFTAEEGQLYGPCGGGGGGGGGGGGGGGGGGGGGGGEAGAVAPYGYTRPPQGLAGQESDFTAPDVWYPGGMVSRVPYPSPTCVKSEMGPWMDSYSGPYGDMRLETARDHVLPIDYYFPPQKTCLICGDEASGCHYGALTCGSCKVFFKRAAEGKQKYLCASRNDCTIDKFRRKNCPSCRLRKCYEAGMTLGARKLKKLGNLKLQEEGEASSTTSPTEETTQKLTVSHIEGYECQPIFLNVLEAIEPGVVCAGHDNNQPDSFAALLSSLNELGERQLVHVVKWAKALPGFRNLHVDDQMAVIQYSWMGLMVFAMGWRSFTNVNSRMLYFAPDLVFNEYRMHKSRMYSQCVRMRHLSQEFGWLQITPQEFLCMKALLLFSIIPVDGLKNQKFFDELRMNYIKELDRIIACKRKNPTSCSRRFYQLTKLLDSVQPIARELHQFTFDLLIKSHMVSVDFPEMMAEIISVQVPKILSGKVKPIYFHTQ |  | binds |

From PMC9841400
